Values from PubChem BioAssay AID504764 (Drosophila RNAi Screening Center, 2011).
Assay: 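Genome-wide screen for regulators of Notch-driven gene expression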 (primary screen). Cells: Drosophila Kc167 cells. Reagents: long dsRNA against Drosophila genes. Time to read-out: about 5 days (4 days dsRNA, then 24 h after transfection). Challenge: transfection of constitutively active membrane-tethered Notch lacking the extracellular domain, read 24 h later. Measurement: 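Firefly luciferase from an E(spl)m3 reporter with active Notch, plus control-promoter and uninduced reporter wells for normalisation; unnormalised counts, duplicate wells a and b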. Scale: induced reporter light, run 1, well a and induced reporter light, run 1, well b: higher = more light from the Notch target reporter with active Notch; control promoter light, run 1, well a and control promoter light, run 1, well b: higher = more light from the viral control promoter (cell number, transfection, viability); uninduced reporter light, run 1, well a: higher = more light from the Notch target reporter without active Notch. Call rule: 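Hit if the duplicate-averaged log2 ratio of induced to control-promoter light gives a plate-wise z beyond ±2, or induced to uninduced beyond ±1.8; weak-control or discordant-duplicate wells dropped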. Calls: active = modifier hit (raised or lowered Notch signal); inactive = not a hit.
The deposit covers about 22,000 reagents; below is a random part of those with a known target gene and a result. In the full data, 403 (1.9%) got an active call. 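Unnormalised raw counts per well; ratio z-scores behind the hit calls and whether each hit raises or lowers signal are not deposited.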 Reagents against one gene are numbered here. Not stated in the record: the amount of reagent.

How did the screen score cyp33?
induced reporter light, run 1, well a: 1.01e5; induced reporter light, run 1, well b: 96735; control promoter light, run 1, well a: 1.82e5; control promoter light, run 1, well b: 2.21e5; uninduced reporter light, run 1, well a: 9675; call: inactive

With Skadu, what does the deposit list?
induced reporter light, run 1, well a: 65570; induced reporter light, run 1, well b: 73830; control promoter light, run 1, well a: 57515; control promoter light, run 1, well b: 56060; uninduced reporter light, run 1, well a: 5038; call: inactive

For CG44085, what was measured?
induced reporter light, run 1, well a: 3960; induced reporter light, run 1, well b: 5142; control promoter light, run 1, well a: 8035; control promoter light, run 1, well b: 7100; uninduced reporter light, run 1, well a: 1980; call: inactive

Which result is listed for Echs1?
induced reporter light, run 1, well a: 97980; induced reporter light, run 1, well b: 1.17e5; control promoter light, run 1, well a: 1.41e5; control promoter light, run 1, well b: 1.35e5; uninduced reporter light, run 1, well a: 11790; call: inactive

How did the screen score nord #1?
induced reporter light, run 1, well a: 1.62e5; induced reporter light, run 1, well b: 1.41e5; control promoter light, run 1, well a: 1.60e5; control promoter light, run 1, well b: 1.45e5; uninduced reporter light, run 1, well a: 10275; call: inactive

What is on record for nord #2?
induced reporter light, run 1, well a: 96610; induced reporter light, run 1, well b: 86725; control promoter light, run 1, well a: 1.15e5; control promoter light, run 1, well b: 1.20e5; uninduced reporter light, run 1, well a: 10535; call: active

How did the screen score Cdc7 #1?
induced reporter light, run 1, well a: 1.89e5; induced reporter light, run 1, well b: 2.06e5; control promoter light, run 1, well a: 3.38e5; control promoter light, run 1, well b: 3.76e5; uninduced reporter light, run 1, well a: 13600; call: inactive

For Cdc7 #2, what was measured?
induced reporter light, run 1, well a: 1.38e5; induced reporter light, run 1, well b: 1.26e5; control promoter light, run 1, well a: 2.18e5; control promoter light, run 1, well b: 1.75e5; uninduced reporter light, run 1, well a: 10405; call: inactive

What is on record for Ilp4?
induced reporter light, run 1, well a: 1.56e5; induced reporter light, run 1, well b: 1.51e5; control promoter light, run 1, well a: 1.92e5; control promoter light, run 1, well b: 1.56e5; uninduced reporter light, run 1, well a: 7845; call: inactive

What did the screen give for CG4459?
induced reporter light, run 1, well a: 2.01e5; induced reporter light, run 1, well b: 1.75e5; control promoter light, run 1, well a: 1.85e5; control promoter light, run 1, well b: 1.88e5; uninduced reporter light, run 1, well a: 11360; call: inactive

With Csl4, how do the results read?
induced reporter light, run 1, well a: 1.25e5; induced reporter light, run 1, well b: 1.76e5; control promoter light, run 1, well a: 95010; control promoter light, run 1, well b: 1.15e5; uninduced reporter light, run 1, well a: 17745; call: inactive

What did the screen give for CG6878?
induced reporter light, run 1, well a: 87545; induced reporter light, run 1, well b: 69740; control promoter light, run 1, well a: 1.18e5; control promoter light, run 1, well b: 88820; uninduced reporter light, run 1, well a: 6420; call: inactive

Active calls, of those listed so far:
nord #2 | induced reporter light, run 1, well a = 96610; induced reporter light, run 1, well b = 86725; control promoter light, run 1, well a = 1.15e5; control promoter light, run 1, well b = 1.20e5; uninduced reporter light, run 1, well a = 10535; call = active
